# The other results are listed elsewhere or left out.
# By UniProt entry, the sequences of proteins in these tests, tags left out. Where a name states a change or a piece, a line headed by the entry shows the natural chain unless it says otherwise.
# UniProt Q04837: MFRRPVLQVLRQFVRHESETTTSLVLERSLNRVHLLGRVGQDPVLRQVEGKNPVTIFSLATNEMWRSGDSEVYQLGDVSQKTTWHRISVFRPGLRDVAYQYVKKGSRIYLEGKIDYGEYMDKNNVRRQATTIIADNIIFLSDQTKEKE
# UniProt O95793: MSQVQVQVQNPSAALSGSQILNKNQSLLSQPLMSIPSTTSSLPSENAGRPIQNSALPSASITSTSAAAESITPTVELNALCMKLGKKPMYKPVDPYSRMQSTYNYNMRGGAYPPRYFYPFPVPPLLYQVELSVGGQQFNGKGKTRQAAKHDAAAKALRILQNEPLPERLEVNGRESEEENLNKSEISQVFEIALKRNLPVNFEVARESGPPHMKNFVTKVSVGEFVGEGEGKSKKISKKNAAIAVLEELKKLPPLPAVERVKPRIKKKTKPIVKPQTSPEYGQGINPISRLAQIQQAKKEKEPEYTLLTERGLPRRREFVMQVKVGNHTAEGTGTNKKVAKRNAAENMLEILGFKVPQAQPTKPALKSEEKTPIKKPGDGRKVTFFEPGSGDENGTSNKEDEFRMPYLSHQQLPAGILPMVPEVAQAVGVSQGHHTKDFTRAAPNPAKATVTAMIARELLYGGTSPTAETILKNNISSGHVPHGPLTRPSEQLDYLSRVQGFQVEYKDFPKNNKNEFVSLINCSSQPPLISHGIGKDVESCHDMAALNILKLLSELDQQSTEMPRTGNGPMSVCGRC
# UniProt Q9BXP5: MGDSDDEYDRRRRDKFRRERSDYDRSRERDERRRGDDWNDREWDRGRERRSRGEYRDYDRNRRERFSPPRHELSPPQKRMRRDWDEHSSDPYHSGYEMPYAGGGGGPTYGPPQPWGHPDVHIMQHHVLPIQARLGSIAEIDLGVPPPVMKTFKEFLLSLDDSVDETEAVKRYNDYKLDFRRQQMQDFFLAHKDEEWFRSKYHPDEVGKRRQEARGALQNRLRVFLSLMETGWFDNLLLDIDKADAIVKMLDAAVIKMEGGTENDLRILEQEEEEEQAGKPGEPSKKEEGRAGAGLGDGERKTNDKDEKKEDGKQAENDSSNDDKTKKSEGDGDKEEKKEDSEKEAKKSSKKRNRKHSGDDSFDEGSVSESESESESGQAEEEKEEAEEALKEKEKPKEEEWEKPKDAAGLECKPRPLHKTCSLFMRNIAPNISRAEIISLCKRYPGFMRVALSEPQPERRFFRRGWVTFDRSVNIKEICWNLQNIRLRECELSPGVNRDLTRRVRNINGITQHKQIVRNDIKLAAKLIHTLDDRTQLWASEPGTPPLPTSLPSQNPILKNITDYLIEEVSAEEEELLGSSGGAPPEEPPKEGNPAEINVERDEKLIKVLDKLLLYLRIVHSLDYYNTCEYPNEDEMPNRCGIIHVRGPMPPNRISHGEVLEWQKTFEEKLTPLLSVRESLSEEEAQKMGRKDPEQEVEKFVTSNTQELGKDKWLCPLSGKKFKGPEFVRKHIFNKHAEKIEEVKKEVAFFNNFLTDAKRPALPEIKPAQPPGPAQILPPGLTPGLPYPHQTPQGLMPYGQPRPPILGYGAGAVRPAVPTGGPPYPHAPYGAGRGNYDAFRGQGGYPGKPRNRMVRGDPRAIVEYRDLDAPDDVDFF
# UniProt Q9Y6E0: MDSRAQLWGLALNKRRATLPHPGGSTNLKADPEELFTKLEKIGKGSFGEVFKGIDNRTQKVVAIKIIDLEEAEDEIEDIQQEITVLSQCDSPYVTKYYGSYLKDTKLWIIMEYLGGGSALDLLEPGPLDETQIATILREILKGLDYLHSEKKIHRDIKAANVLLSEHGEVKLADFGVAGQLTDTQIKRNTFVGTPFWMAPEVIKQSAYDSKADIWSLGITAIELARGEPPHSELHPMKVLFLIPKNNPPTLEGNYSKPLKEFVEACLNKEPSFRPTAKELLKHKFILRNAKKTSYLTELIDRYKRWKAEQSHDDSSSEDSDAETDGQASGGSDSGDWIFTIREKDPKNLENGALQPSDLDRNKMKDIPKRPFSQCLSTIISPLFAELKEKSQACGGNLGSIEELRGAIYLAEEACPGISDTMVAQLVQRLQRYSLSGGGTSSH
# UniProt P61009: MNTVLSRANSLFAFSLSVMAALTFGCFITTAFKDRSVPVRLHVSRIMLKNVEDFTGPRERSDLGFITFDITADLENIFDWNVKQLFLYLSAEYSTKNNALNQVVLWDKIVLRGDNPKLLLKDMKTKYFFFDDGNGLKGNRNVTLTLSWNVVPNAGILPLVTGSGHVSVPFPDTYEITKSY
# UniProt Q8TCT7: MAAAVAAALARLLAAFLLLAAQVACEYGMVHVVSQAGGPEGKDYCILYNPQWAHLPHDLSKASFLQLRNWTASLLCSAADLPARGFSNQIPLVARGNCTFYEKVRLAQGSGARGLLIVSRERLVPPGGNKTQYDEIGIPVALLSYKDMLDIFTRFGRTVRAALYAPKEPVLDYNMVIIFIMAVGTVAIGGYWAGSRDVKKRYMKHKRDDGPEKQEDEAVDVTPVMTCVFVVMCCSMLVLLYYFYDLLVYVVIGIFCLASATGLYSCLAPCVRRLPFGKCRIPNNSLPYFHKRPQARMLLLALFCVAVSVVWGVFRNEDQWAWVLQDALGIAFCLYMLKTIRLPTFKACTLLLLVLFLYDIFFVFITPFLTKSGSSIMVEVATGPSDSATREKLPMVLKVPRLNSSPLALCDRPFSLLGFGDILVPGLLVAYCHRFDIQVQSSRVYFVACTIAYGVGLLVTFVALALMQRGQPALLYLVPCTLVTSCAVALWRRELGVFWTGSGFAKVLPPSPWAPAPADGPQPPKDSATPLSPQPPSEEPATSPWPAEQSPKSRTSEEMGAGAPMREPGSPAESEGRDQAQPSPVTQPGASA
# UniProt P10124: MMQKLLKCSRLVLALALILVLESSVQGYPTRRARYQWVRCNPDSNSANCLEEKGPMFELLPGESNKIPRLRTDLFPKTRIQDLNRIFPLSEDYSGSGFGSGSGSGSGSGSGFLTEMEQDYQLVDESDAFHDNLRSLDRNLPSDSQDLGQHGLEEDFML
# UniProt Q13242, whole entry, looked up: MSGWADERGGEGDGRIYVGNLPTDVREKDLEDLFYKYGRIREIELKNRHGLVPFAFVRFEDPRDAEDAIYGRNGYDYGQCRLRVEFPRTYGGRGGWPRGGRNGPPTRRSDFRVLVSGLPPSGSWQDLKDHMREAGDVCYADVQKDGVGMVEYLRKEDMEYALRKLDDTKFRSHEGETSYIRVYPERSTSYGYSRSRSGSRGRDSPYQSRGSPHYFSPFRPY
# UniProt P11277, whole entry, looked up: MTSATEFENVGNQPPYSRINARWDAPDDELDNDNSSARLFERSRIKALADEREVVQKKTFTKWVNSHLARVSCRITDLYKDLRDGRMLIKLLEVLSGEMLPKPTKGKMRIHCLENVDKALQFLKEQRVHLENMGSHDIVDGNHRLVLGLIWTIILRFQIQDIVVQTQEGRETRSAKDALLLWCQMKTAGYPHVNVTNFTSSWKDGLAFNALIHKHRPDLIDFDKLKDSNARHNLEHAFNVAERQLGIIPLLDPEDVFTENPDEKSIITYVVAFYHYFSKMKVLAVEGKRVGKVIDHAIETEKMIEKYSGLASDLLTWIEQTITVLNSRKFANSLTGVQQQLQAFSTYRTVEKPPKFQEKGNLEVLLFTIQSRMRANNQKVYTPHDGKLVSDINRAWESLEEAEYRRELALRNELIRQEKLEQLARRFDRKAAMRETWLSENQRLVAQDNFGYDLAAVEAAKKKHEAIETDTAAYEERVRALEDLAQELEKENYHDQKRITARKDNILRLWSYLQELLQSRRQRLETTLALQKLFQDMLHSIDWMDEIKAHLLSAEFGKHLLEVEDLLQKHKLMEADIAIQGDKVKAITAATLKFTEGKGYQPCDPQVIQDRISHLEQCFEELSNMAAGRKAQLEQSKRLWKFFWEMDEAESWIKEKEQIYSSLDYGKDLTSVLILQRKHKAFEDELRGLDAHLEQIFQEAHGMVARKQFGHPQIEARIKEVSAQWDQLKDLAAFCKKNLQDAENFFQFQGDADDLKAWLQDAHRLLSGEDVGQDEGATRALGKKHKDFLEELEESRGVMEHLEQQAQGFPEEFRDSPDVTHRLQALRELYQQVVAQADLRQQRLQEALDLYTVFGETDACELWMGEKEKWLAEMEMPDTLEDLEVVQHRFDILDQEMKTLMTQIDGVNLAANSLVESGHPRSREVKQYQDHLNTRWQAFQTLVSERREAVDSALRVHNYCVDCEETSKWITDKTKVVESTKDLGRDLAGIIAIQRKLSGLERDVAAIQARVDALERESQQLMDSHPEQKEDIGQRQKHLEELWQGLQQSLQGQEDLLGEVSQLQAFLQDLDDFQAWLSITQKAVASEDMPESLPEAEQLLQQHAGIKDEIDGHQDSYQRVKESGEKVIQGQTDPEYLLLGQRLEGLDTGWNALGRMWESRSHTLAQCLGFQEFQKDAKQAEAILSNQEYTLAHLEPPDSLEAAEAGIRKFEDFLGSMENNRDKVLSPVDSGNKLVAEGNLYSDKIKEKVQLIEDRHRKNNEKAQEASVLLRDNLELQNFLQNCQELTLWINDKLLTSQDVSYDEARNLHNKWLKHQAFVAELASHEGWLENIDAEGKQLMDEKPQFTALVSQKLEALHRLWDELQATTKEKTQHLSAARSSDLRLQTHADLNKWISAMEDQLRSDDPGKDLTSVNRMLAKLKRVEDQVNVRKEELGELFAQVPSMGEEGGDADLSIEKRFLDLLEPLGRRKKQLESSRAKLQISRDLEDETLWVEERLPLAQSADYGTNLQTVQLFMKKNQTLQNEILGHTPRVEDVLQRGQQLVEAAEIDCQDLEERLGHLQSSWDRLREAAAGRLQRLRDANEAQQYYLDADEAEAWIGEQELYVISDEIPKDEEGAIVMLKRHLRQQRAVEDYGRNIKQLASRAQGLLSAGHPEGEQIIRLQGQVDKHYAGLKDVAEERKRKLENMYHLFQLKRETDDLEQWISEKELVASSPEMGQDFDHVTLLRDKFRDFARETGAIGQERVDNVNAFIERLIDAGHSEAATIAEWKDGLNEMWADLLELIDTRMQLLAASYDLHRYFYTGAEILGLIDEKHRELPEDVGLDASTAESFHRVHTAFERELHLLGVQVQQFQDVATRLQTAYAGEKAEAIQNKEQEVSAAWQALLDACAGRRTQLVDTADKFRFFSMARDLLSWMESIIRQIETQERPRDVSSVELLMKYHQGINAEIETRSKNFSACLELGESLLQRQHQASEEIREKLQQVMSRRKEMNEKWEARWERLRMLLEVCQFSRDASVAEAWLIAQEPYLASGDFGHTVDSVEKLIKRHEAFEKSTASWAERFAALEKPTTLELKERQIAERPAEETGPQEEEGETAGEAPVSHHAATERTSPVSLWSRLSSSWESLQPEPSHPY
# UniProt Q01130: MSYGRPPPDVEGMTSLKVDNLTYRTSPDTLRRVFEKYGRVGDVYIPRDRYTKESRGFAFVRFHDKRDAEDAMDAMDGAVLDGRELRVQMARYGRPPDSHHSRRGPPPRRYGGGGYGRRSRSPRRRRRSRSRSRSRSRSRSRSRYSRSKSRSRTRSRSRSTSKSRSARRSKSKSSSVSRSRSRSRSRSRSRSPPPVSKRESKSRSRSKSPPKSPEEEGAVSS
# UniProt Q08945, whole entry, looked up: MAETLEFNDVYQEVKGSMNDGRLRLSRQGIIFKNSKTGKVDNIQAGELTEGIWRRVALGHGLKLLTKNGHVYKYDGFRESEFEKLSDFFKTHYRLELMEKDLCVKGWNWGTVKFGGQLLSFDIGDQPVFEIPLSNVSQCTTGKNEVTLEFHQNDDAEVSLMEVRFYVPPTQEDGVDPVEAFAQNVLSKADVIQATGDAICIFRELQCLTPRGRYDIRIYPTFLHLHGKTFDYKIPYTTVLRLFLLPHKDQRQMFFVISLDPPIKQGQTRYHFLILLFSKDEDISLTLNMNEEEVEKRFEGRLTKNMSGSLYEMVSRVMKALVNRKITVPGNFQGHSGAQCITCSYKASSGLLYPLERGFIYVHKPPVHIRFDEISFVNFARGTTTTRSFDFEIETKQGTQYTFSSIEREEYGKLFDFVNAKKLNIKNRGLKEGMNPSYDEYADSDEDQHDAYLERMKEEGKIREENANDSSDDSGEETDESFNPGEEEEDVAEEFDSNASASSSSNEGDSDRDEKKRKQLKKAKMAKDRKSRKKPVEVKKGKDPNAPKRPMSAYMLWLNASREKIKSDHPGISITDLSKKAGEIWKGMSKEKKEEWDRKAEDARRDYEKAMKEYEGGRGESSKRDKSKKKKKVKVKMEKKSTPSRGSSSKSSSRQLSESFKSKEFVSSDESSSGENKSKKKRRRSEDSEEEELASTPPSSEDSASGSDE
# UniProt Q15005: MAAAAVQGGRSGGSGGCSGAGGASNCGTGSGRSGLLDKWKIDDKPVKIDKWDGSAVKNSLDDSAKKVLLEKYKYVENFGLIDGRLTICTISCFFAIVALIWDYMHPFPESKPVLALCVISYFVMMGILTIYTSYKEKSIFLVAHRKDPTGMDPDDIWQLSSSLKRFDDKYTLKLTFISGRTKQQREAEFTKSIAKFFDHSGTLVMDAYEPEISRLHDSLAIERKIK
# Tests used:
# Test in all cases: log2 fold change, soluble protein after heating vs DMSO (PISA); higher = thermal stabilisation; K562 cells, 10 uM, 30 min; active = over 0.2 and 3.5 SD of the protein, either way, in both replicates (recomputed)
# erlotinib = compound: C#Cc1cccc(Nc2ncnc3cc(OCCOC)c(OCCOC)cc23)c1 [erlotinib]
# How it was run: (§1)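 K562 cells (2×10^6 cells/mL) were treated with 10 μM compound for 30 min, and aliquots were heated for 3 min over 48°C-58°C. Pooled aliquots were extracted in PBS with 0.5% NP-40 at 4°C, and the supernatant after 21,000xg for 90 min was measured by TMTpro 16plex LC-MS/MS with channel sums equalised. Reported thermal stability, relative to control samples and from duplicates, is a log2 fold change.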
# [1] = compound: C/C(=N\NC(=O)C1=CC(=CC=C1)S(=O)(=O)N2CCOCC2)/C3=C(C=CC(=C3)Cl)O
# How it was run: as §1
# [2] = compound: C1=CC(=C(C=C1Cl)C2=NC3=NC=CN=C3C(=N2)NC4=CC=NC=C4)F
# How it was run: as §1
# [3] = compound: C1=CC(=CC=C1C2=NC3=C(N2)C=C(C=C3)C(=O)N)OC4=CC=C(C=C4)Cl
# How it was run: as §1
# [4] = compound: C1=CC2=C(C=CC(=C2)/C=C\3/C(=O)NC(=NCC4=CC=CS4)S3)N=C1
# How it was run: as §1
# [5] = compound: C1=CC2=NC=CN=C2C=C1/C=C/3\C(=O)NC(=O)S3
# How it was run: as §1
# [6] = compound: C1=CC=C(C=C1)C2=NC(=C(N2)C3=CC=NC=C3)C4=CC(=C(C=C4)Cl)O
# How it was run: as §1
# [7] = compound: C1=CC=C2C(=C1)C3=NNC4=CC=CC(=C43)C2=O
# How it was run: as §1
# [8] = compound: C1CCN(C1)C(=O)NC2=CC=CC(=C2)NC3=NC=C(C(=N3)NCCC4=CN=CN4)Br
# How it was run: as §1
# [9] = compound: C1CN(CCC1(CC2=CC=C(C=C2)Cl)N)C3=NC=NC4=C3C=CN4
# How it was run: as §1
Target,log2 fold change (erlotinib),log2 fold change [1],log2 fold change [2],log2 fold change [3],log2 fold change [4],log2 fold change [5],log2 fold change [6],log2 fold change [7],log2 fold change [8],log2 fold change [9]
SSBP1 (UniProt Q04837),inactive: -0.009,inactive: -0.052,inactive: -0.035,inactive: -0.018,inactive: 0.003,inactive: 0.022,inactive: -0.099,inactive: 0.025,inactive: 0.016,inactive: -0.015
SRSF1 (UniProt Q07955),inactive: -0.042,inactive: -0.07,inactive: -0.337,inactive: 0.067,inactive: -0.043,inactive: -0.007,inactive: -0.132,inactive: -0.011,inactive: 0.022,inactive: -0.101
STK11 (UniProt Q15831),inactive: -0.103,inactive: -0.002,inactive: -0.022,inactive: 0.099,inactive: 0.034,inactive: 0.029,inactive: -0.06,inactive: -0.013,inactive: 0.031,inactive: 0.037
STAU1 (UniProt O95793),inactive: -0.183,inactive: -0.22,inactive: -0.728,inactive: 0.016,inactive: -0.119,inactive: -0.013,inactive: -0.116,inactive: 0.007,inactive: 0.119,inactive: -0.188
SRRT (UniProt Q9BXP5),inactive: 0.252,inactive: 0.157,inactive: 0.12,inactive: -0.022,inactive: 0.137,inactive: -0.008,inactive: 0.091,inactive: 0.054,inactive: -0.081,inactive: -0.023
STK24 (UniProt Q9Y6E0),inactive: -0.001,inactive: 0.031,inactive: 0.021,inactive: -0.009,inactive: -0.006,inactive: 0.008,inactive: -0.021,inactive: -0.03,inactive: -0.001,inactive: 0.044
SRP68 (UniProt Q9UHB9),inactive: 0.047,inactive: 0.034,inactive: -0.043,inactive: -0.071,inactive: 0.011,inactive: 0.01,inactive: 0.002,inactive: -0.087,inactive: 0.015,inactive: -0.107
SPCS3 (UniProt P61009),inactive: -0.024,inactive: 0.019,inactive: -0.021,inactive: -0.01,inactive: -0.069,inactive: 0.021,inactive: -0.025,inactive: -0.043,inactive: 0.022,inactive: 0.022
"SPCS1, A0A5F9YFS9",inactive: -0.043,inactive: 0.073,inactive: -0.149,inactive: 0.059,inactive: 0.095,inactive: 0.092,inactive: 0.001,inactive: -0.007,inactive: 0.001,inactive: -0.076
SPPL2B (UniProt Q8TCT7),inactive: 0.021,inactive: -0.112,inactive: -0.039,inactive: 0.044,inactive: 0.081,inactive: 0.048,inactive: 0.003,inactive: -0.072,inactive: -0.041,inactive: 0.038
SRPRB (UniProt Q9Y5M8),inactive: -0.015,inactive: 0.106,inactive: 0.122,inactive: -0.018,inactive: 0.045,inactive: -0.036,inactive: 0.089,inactive: 0.024,inactive: -0.006,inactive: 0.017
SRSF3 (UniProt P84103),inactive: -0.074,inactive: -0.03,inactive: -0.35,inactive: 0.053,inactive: -0.074,inactive: -0.009,inactive: -0.003,inactive: 0.006,inactive: 0.097,inactive: -0.107
SRGN (UniProt P10124),inactive: 0.027,inactive: -0.025,inactive: 0.001,inactive: -0.052,inactive: -0.024,inactive: 0.017,inactive: 0.022,inactive: 0.009,inactive: -0.064,inactive: 0.057
SRC isoform 2 (UniProt P12931),inactive: -0.014,inactive: -0.034,inactive: -0.006,inactive: 0.153,inactive: 0.088,inactive: 0.022,inactive: 0.036,inactive: -0.049,inactive: -0.073,inactive: -0.025
SRSF9 (UniProt Q13242),inactive: -0.084,inactive: -0.4,active: -0.721,inactive: 0.138,inactive: -0.211,inactive: 0.052,inactive: -0.087,inactive: -0.229,,
SPTLC1 (UniProt O15269),inactive: 0.032,inactive: 0.054,inactive: 0.045,inactive: -0.049,inactive: 0.048,inactive: 0.011,inactive: 0.006,inactive: 0.004,inactive: -0.101,inactive: 0.024
SRSF11 (UniProt Q05519),inactive: 0.05,inactive: 0.191,inactive: 0.06,inactive: 0.054,inactive: -0.049,inactive: -0.003,inactive: -0.026,inactive: -0.003,inactive: -0.129,inactive: -0.196
SPTB isoform 2 (UniProt P11277),inactive: 0.063,inactive: 0.116,inactive: -0.158,inactive: 0,inactive: 0.129,inactive: -0.269,inactive: -0.024,inactive: -0.015,inactive: -0.136,inactive: -0.22
SSB (UniProt P05455),inactive: -0.05,inactive: 0.045,inactive: 0.013,inactive: 0.028,inactive: -0.043,inactive: -0.014,inactive: -0.056,inactive: -0.169,inactive: -0.151,inactive: -0.03
SRP54 (UniProt P61011),inactive: 0.036,inactive: 0.072,inactive: 0.03,inactive: -0.023,inactive: 0.037,inactive: 0.035,inactive: 0.009,inactive: 0.03,inactive: -0.024,inactive: -0.023
STK25 (UniProt O00506),inactive: 0.081,inactive: 0.011,inactive: 0.062,inactive: -0.009,inactive: 0.021,inactive: 0.041,inactive: -0.025,inactive: -0.007,inactive: 0.026,inactive: 0.011
SRSF2 (UniProt Q01130),inactive: -0.003,inactive: -0.034,inactive: -0.13,inactive: 0.02,inactive: -0.029,inactive: -0.032,inactive: -0.038,inactive: -0.032,inactive: 0.041,inactive: -0.027
STAT6 (UniProt P42226),inactive: 0.082,inactive: 0.061,inactive: 0.12,inactive: 0.018,inactive: 0.022,inactive: -0.032,inactive: 0.025,inactive: -0.026,inactive: -0.063,inactive: 0.04
SRGAP2 (UniProt O75044),inactive: -0.001,inactive: 0.066,inactive: -0.038,inactive: 0.082,inactive: 0.042,inactive: 0.02,inactive: 0.027,inactive: -0.025,inactive: -0.031,inactive: -0.032
SRSF4 (UniProt Q08170),inactive: -0.054,inactive: 0.015,inactive: -0.325,inactive: 0.05,inactive: -0.155,inactive: -0.072,inactive: -0.024,inactive: -0.109,inactive: 0.007,inactive: -0.254
STK26 (UniProt Q9P289),inactive: 0.058,inactive: -0.014,inactive: 0.195,inactive: -0.014,inactive: -0.008,inactive: 0.124,inactive: -0.015,inactive: -0.08,inactive: 0.023,inactive: 0.02
SPEN (UniProt Q96T58),inactive: 0.123,inactive: -0.244,inactive: -0.053,inactive: 0.085,inactive: 0.077,inactive: -0.074,inactive: 0.033,inactive: 0.309,inactive: -0.091,inactive: 0.08
SPTBN2 (UniProt O15020),inactive: 0.049,inactive: 0.14,inactive: -0.007,inactive: -0.065,inactive: 0.041,inactive: -0.026,inactive: 0.033,inactive: 0.067,inactive: -0.029,inactive: -0.12
SSRP1 (UniProt Q08945),inactive: -0.018,inactive: 0.143,inactive: 0.005,inactive: 0.014,inactive: 0.029,inactive: 0.022,inactive: -0.016,inactive: -0.029,inactive: -0.052,inactive: 0.009
SPCS2 (UniProt Q15005),inactive: -0.022,inactive: 0.015,inactive: 0.077,inactive: -0.043,inactive: 0.011,inactive: 0.029,inactive: -0.004,inactive: -0.08,inactive: -0.005,inactive: 0.001

# Individual results from the results shown:
# log2 fold change [1], SPTLC1 (UniProt O15269) reads inactive: 0.054
# log2 fold change (erlotinib), SRSF1 (UniProt Q07955) reads inactive: -0.042
